Test results published in publication PMC5341751.
These are yes or no findings as the source states them, for the method shown.

Sequences of proteins named here, by UniProt entry; tags and fusion partners are left off. A change or cut given only in a name is not applied to a line headed by its entry. A line that says so, or that is headed by a name, gives the form on record, which may keep a tag or linker.
glyCD147-ECD (P35613-2, form named): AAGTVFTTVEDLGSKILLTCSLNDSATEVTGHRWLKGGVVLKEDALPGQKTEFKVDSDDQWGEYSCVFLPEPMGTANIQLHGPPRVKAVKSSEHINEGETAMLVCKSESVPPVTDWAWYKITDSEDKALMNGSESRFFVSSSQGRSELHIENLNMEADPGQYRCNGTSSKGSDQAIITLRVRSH

Biological target: T1, Syndecan-1 extracellular region (UniProt P18827)
T1 sequence (chain, isotopically labeled): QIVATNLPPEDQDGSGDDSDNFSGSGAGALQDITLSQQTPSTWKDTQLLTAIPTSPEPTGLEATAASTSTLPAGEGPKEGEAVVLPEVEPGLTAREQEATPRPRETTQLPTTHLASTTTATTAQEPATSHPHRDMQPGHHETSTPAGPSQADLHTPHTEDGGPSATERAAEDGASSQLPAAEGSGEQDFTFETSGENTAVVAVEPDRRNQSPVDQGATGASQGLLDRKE
Assay: NMR titration; isotopically labeled Syndecan-1 with glyCD147-ECD; 25 °C; 50 mM phosphate, 50 mM NaCl, pH 6.5; both purified

Substance: glyCD147-ECD (from UniProt P35613-2 22-205) (domain or fragment)
- binding: no binding
